Source: paper PMC5900714
Results are given in words; binding and its absence hold for the method and conditions named. In cells and extracts the contact can be indirect. Some entries that bind do so weakly or less than the wild type. For some of these results: Where a sequence is shown, tags or fusion partners need not be part of it.

Protein sequences, listed by entry. Tags and fused reporters are not part of them.
UniProt Q9VCE6: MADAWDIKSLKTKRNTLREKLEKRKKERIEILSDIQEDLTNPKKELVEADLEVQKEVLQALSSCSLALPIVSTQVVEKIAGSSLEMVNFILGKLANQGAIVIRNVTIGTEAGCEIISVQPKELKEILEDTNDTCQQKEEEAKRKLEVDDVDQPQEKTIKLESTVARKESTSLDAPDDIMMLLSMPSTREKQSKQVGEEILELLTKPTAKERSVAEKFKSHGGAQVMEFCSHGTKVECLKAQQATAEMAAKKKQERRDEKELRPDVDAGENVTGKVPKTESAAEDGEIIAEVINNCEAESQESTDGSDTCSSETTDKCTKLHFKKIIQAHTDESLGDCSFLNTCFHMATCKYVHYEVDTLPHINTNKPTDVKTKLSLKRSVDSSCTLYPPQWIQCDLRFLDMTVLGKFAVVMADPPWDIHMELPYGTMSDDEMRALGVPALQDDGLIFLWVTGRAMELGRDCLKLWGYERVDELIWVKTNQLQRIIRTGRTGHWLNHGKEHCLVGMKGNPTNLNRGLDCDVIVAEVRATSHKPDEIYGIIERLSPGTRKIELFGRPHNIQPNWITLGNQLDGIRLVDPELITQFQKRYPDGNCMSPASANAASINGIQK
UniProt Q9W1R5: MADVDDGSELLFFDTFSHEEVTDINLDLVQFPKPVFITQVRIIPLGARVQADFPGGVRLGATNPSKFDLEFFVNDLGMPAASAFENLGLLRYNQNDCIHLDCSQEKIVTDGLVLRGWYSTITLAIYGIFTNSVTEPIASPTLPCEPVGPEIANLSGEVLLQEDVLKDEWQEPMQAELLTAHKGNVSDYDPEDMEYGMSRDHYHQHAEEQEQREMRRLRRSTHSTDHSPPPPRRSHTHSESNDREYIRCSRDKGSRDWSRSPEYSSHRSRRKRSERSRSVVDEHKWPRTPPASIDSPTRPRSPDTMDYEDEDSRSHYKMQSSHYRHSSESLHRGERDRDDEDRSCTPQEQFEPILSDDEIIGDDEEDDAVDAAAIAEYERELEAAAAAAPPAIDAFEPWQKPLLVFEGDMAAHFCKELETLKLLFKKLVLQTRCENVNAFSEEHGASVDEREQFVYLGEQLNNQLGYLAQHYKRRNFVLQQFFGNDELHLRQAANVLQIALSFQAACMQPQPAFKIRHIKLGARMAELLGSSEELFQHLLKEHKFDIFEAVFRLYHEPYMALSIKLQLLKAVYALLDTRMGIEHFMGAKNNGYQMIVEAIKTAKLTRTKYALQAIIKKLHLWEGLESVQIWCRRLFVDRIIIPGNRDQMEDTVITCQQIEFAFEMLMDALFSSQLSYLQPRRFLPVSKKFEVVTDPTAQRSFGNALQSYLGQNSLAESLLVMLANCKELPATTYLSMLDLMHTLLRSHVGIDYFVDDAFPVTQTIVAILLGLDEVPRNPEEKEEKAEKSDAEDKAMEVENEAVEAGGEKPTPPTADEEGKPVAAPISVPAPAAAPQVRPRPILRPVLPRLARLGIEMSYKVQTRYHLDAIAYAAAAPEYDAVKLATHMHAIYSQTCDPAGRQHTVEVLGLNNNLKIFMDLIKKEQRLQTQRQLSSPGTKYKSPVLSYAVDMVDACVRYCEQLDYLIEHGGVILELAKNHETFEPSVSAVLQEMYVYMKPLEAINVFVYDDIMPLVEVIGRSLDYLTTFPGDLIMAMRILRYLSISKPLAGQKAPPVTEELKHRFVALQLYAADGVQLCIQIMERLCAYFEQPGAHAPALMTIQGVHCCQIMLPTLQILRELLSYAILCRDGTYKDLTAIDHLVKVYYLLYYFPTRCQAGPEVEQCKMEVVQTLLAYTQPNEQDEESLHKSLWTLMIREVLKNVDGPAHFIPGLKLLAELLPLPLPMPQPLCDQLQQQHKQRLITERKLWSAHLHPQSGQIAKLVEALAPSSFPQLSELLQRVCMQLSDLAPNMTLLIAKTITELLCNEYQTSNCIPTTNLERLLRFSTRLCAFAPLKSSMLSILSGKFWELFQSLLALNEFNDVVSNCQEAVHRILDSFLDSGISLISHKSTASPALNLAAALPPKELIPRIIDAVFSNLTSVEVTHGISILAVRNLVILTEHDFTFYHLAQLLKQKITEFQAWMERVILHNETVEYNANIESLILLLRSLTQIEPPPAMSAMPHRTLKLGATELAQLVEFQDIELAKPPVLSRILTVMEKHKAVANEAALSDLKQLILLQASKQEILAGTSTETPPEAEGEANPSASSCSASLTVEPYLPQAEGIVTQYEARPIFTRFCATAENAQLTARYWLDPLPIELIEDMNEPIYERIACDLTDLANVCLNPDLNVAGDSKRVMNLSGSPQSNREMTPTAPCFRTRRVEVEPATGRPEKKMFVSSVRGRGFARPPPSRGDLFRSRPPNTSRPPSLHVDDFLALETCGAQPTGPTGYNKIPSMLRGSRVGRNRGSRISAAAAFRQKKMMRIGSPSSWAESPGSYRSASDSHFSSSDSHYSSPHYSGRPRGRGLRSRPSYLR

T1: Nito, as used in the interaction tests of Supplemental Fig. S8 (D. melanogaster) (UniProt Q7KMJ6)
T1 sequence: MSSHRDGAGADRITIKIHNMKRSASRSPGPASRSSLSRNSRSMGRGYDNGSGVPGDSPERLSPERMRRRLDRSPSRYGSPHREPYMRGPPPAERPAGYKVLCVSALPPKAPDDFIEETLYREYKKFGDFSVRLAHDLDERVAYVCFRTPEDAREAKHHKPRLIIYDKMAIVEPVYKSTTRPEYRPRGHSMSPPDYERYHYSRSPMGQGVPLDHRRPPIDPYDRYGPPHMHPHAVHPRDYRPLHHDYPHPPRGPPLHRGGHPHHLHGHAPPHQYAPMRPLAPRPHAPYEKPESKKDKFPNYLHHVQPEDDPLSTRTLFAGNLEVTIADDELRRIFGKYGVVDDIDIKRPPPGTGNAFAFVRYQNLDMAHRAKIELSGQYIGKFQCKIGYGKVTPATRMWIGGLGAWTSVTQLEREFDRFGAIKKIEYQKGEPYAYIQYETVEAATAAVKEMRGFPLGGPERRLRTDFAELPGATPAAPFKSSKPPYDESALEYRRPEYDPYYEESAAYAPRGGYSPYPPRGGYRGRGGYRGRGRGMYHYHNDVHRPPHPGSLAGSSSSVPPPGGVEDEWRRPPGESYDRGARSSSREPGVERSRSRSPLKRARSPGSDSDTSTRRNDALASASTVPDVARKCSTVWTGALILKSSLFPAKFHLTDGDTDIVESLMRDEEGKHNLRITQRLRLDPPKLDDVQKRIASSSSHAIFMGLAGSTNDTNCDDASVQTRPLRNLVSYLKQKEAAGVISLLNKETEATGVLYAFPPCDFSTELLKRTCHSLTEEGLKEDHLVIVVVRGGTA

T2: Flacc-Myc (D. melanogaster) (UniProt Q9VWN4)
T2 sequence: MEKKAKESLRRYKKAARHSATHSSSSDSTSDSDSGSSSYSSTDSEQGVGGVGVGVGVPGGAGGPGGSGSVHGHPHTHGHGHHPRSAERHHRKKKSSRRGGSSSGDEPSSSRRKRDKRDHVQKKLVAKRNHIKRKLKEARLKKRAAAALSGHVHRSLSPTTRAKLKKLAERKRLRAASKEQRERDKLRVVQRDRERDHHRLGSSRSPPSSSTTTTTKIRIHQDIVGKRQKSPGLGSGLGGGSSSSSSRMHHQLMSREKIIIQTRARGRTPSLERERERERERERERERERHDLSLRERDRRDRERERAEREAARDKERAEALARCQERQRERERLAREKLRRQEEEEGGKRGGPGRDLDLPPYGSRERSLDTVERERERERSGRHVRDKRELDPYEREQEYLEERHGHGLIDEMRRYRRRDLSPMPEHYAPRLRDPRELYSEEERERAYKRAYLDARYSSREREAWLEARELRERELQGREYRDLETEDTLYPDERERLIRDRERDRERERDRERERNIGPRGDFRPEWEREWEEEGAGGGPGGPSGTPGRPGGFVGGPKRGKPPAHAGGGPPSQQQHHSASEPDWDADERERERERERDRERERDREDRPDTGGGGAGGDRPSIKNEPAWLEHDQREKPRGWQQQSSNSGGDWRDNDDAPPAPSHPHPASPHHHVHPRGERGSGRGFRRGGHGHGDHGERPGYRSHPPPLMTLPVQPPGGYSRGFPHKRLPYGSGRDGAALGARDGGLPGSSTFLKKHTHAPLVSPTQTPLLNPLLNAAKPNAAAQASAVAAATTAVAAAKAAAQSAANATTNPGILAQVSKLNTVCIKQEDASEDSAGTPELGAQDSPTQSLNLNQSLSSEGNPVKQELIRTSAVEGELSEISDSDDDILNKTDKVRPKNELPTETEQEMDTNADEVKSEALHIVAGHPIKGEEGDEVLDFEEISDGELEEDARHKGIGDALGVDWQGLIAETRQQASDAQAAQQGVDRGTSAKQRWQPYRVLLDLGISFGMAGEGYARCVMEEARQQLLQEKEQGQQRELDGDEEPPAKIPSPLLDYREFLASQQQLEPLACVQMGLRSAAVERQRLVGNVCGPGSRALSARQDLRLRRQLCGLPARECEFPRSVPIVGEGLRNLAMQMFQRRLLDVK

T3: FlagMyc-Flacc (D. melanogaster) (UniProt Q9VWN4)
T3 sequence: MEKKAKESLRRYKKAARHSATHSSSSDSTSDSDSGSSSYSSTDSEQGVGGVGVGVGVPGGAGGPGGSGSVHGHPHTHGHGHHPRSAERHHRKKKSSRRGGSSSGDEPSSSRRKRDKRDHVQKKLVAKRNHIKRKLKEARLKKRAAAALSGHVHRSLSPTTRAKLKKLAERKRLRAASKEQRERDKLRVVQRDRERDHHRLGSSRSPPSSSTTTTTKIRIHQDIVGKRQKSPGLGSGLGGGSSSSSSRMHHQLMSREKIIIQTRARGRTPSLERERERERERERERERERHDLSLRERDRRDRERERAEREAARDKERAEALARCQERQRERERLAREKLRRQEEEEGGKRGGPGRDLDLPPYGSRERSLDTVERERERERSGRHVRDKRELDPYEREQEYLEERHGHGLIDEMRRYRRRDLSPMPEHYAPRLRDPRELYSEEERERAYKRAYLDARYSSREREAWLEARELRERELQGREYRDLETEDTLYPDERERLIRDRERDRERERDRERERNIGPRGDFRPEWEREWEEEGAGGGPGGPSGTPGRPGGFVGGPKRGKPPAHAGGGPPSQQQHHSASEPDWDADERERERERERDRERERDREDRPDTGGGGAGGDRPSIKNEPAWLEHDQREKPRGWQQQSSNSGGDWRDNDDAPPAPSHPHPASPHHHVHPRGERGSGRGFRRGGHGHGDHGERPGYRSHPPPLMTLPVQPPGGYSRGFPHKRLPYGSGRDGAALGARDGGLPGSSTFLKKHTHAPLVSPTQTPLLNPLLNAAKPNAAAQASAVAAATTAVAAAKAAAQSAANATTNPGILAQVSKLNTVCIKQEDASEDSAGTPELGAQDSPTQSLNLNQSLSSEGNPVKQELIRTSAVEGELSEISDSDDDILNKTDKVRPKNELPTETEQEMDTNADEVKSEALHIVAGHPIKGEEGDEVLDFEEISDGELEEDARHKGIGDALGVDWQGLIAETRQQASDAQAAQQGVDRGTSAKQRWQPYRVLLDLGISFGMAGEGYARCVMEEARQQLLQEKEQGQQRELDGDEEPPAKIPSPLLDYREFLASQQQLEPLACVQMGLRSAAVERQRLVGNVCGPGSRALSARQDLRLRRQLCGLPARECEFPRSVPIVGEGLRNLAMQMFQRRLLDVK


How the values were obtained:
[1] = target: T1, Nito, as used in the interaction tests of Supplemental Fig. S8 (D. melanogaster); test: co-IP; interactions between m6A writers in S2R+ cells, control and Flacc knock-down; details only in Supplemental Fig. S8 and its legend (not shown); method taken from the paper's co-immunoprecipitation methods
[2] = target: T2, Flacc-Myc (D. melanogaster); test: co-IP; S2R+ cells co-transfected, lysate (50 mM Tris-HCl pH 7.4, 150 mM NaCl, 0.05% NP-40), anti-Myc antibody on protein G beads, Western blot; repeated with RNase T1 where told; control knock-down condition
[3] = target: T3, FlagMyc-Flacc (D. melanogaster); test: as above
[4] = target: Mettl3 (Drosophila) (D. melanogaster) (UniProt Q9VCE6); test: co-IP; interactions between m6A writers in S2R+ cells, control and Flacc knock-down; details only in Supplemental Fig. S8 and its legend (not shown); method taken from the paper's co-immunoprecipitation methods

Molecule	binding [1]	binding [2]	binding [3]	binding [4]
Mettl3 (Drosophila) (from UniProt Q9VCE6 1-608) (enzyme)	binds	–	–	–
Vir (Virilizer), as used in the co-immunoprecipitations of Supplemental Figs. S3 and S8 (from UniProt Q9W1R5 1-1854)	binds	binds	–	–
HA-Nito (protein, UniProt Q7KMJ6 1-793) MSSHRDGAGADRITIKIHNMKRSASRSPGPASRSSLSRNSRSMGRGYDNGSGVPGDSPERLSPERMRRRLDRSPSRYGSPHREPYMRGPPPAERPAGYKVLCVSALPPKAPDDFIEETLYREYKKFGDFSVRLAHDLDERVAYVCFRTPEDAREAKHHKPRLIIYDKMAIVEPVYKSTTRPEYRPRGHSMSPPDYERYHYSRSPMGQGVPLDHRRPPIDPYDRYGPPHMHPHAVHPRDYRPLHHDYPHPPRGPPLHRGGHPHHLHGHAPPHQYAPMRPLAPRPHAPYEKPESKKDKFPNYLHHVQPEDDPLSTRTLFAGNLEVTIADDELRRIFGKYGVVDDIDIKRPPPGTGNAFAFVRYQNLDMAHRAKIELSGQYIGKFQCKIGYGKVTPATRMWIGGLGAWTSVTQLEREFDRFGAIKKIEYQKGEPYAYIQYETVEAATAAVKEMRGFPLGGPERRLRTDFAELPGATPAAPFKSSKPPYDESALEYRRPEYDPYYEESAAYAPRGGYSPYPPRGGYRGRGGYRGRGRGMYHYHNDVHRPPHPGSLAGSSSSVPPPGGVEDEWRRPPGESYDRGARSSSREPGVERSRSRSPLKRARSPGSDSDTSTRRNDALASASTVPDVARKCSTVWTGALILKSSLFPAKFHLTDGDTDIVESLMRDEEGKHNLRITQRLRLDPPKLDDVQKRIASSSSHAIFMGLAGSTNDTNCDDASVQTRPLRNLVSYLKQKEAAGVISLLNKETEATGVLYAFPPCDFSTELLKRTCHSLTEEGLKEDHLVIVVVRGGTA	–	–	binds	–
Fl(2)d, as detected in the Flacc-Myc immunoprecipitate (Supplemental Fig. S3) (protein, UniProt Q9Y091 1-536) MSVAAMTMDDQRPCMNSYDKMPPTKYEQNLNILNSSQNSGATGGPASPTPSGLEDHHHHHHPHPHHHHHQEQQQQQQQQQHLQQQQQQQQQQHAAAVAEAVAAAEQRQRLLEDEIENLKLEQVRMAQQCADAQRREKILMRRLANKEQEFQDYVSQIAEYKAQQAPTALALRTALLDPAVNLLFERLKKELKATKAKLEETQNELSAWKFTPDSNTGKRLMAKCRLLYQENEELGKMTSNGRLAKLETELAMQKSFSEEVKKSQSELDDFLQELDEDVEGMQSTILFLQQELKTTRDRIQTLEKENAQLKQAIKDEVVAPAAATNGGTNTTINKLETIHEDACMANNPTNPDCYNGNTNNEQIAAVPQIPLSDDGSNMNGNAARLARKRNYQEEEALPTVVVVPTPTPVGNNVQEAPPIREVTAPRTLPPKKSKLRGITTRRNSQLEEDHQPVTTPVAVPMIVDNAVAGMASEEAAAAAAAVNNSNTGIIPETGVQVGVPVEGGDPGAPAAPGRILTRRRSVRMQQNGSGAVDYST	–	binds	–	–
Mettl14 (Drosophila) (protein, UniProt Q9VLP7 1-397) MSDVLKSSQERSRKRRLLLAQTLGLSSVDDLKKALGNAEDINSSRQLNSGGQREEEDGGASSSKKTPNEIIYRDSSTFLKGTQSSNPHNDYCQHFVDTGQRPQNFIRDVGLADRFEEYPKLRELIKLKDKLIQDTASAPMYLKADLKSLDVKTLGAKFDVILIEPPLEEYARAAPSVATVGGAPRVFWNWDDILNLDVGEIAAHRSFVFLWCGSSEGLDMGRNCLKKWGFRRCEDICWIRTNINKPGHSKQLEPKAVFQRTKEHCLMGIKGTVRRSTDGDFIHANVDIDLIISEEEEFGSFEKPIEIFHIIEHFCLGRRRLHLFGRDSSIRPGWLTVGPELTNSNFNSELYQTYFAEAPATGCTSRIELLRPKSPPPNSKVLRGRGRGFPRGRGRPR	binds	–	–	binds
